Test results reported in PubChem BioAssay AID2685 (National Center for Advancing Translational Sciences (NCATS), 2010).
The other results are listed elsewhere or left out. These are further read-outs of the screen, such as a control signal, another cell line or another target. No call is given for them. Most of these compounds were active or inconclusive in the main read-out, so they are no random draw. Words in brackets tell the shape of the fitted curve; partial curves, single points and poor fits give uncertain potencies.

Experiment: qHTS Assay for Lipid Storage Modulators in Drosophila S3 Cells;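 for cell number change: cells counted by Cell Tracker Red CMTPX staining in the red channel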
Settings: BODIPY lipid droplet fluorescence, 18-24 h; for cell number change: measured here: cell count max response, cells fed with added oleic acid
Summary of the method: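 Drosophila S3 cells loaded with oleic acid (400 uM, as added) and compounds at several concentrations; lipid droplets imaged by 488-nm laser-scanning cytometry, 500–530 nm intensity and object ratio to cell channel. Percent activity normalized to 20 uM Triacsin C.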

[1] = measured here: cell number channel AC50, cells fed with added oleic acid
[2] = measured here: lipid fluorescence (Fed channel) AC50, cells fed with added oleic acid

Row | Compound | cell number change [%] | AC50 [1] | AC50 [2]
1 | CCOC(=O)C1(Cc2ccc(Cl)cc2)CCN(Cc2cn(CC)nc2C)CC1 | 16.4 | 6.51 nM [rising, full curve, poor fit] | –
2 | Cc1cc(C)c(C(=O)COC(=O)c2cccc(S(=O)(=O)NCc3ccccc3)c2)cc1C | 1.77 | – | 130 nM [falling, full curve, poor fit]
3 | CC1(C)OC(=O)C(=NNc2ccc(Br)cc2)C(=O)O1 | 2.2 | – | 20600 nM [rising, single point]
4 | COC(=O)Nc1ccc(S(=O)(=O)N2CCC(C(=O)N(C)C3CCCCC3)CC2)cc1 | 13.4 | 1640 nM [rising, single point] | 65.1 nM [falling, full curve, poor fit]
5 | O=S(=O)(NCCN1CCOCC1)c1cccs1 | – | – | 4.61 nM [falling, full curve, poor fit]
6 | CC(Sc1nnc(C2CC2)n1C1CC1)C(=O)NC1(C#N)CCCCC1 (stereo not given) | 9.58 | – | 4110 nM [rising, single point]
7 | Cc1ccccc1/C=N/n1c(C2CCCCC2)n[nH]c1=S | -22.2 | – | 11600 nM [falling, partial curve, poor fit]
8 | Cc1ccc(NC(=O)CSc2ncc3ccccn23)cc1C | -22.4 | – | 29100 nM [falling, single point]
9 | CCOc1ccc(OCCC(=O)N2CCN(S(=O)(=O)c3ccc(F)cc3)CC2)cc1 | – | – | 731 nM [rising, single point]
10 | COc1cccc(-n2nnc(S(=O)(=O)c3ccc(C)cc3)c2N)c1 | 7.79 | – | –
11 | O=C(CC(c1ccccc1)c1ccccc1)Nc1nn[nH]n1 | -1.38 | – | –
12 | O=Cc1ccccc1OCc1ccc2c(c1)OCO2 | 14.4 | – | –
13 | C/C(=N/Nc1ccc(C)cc1)C1(C)N(O)C(C)(C)C(c2ccco2)=[N+]1[O-] (stereo not given) | – | – | 146 nM [rising, full curve, poor fit]
14 | Cc1ccccc1C(=O)Nc1c2c(nn1C(C)(C)C)CS(=O)(=O)C2 | 7.12 | – | 2060 nM [rising, partial curve]
15 | Cc1nonc1OC(C)CNc1ccc([N+](=O)[O-])cc1 (stereo not given) | -11.1 | 1300 nM [rising, partial curve] | –
16 | COc1cc2c(cc1OC)CN(C(=O)C1CCCN(C(=O)c3ccc(Cl)cc3)C1)CC2 (stereo not given) | -27.1 | – | 3260 nM [falling, partial curve]
17 | O=C(Nc1ccc2c(c1)OCO2)NC1CCN(Cc2ccccc2)CC1 | – | 517 nM [rising, full curve] | 651 nM [rising, full curve]
18 | COc1ccc(NC(=O)COC(=O)c2ccc3ccccc3n2)cc1 | -17.3 | – | 29100 nM [rising, single point]
19 | COc1cc(C(=O)N/N=C(\C)c2ccc(NC(=O)Cc3ccccc3)cc2)ccc1O | -2.6 | – | –
20 | O=C(COc1coc(CN2CCN(c3ccccc3)CC2)cc1=O)Nc1ccccc1F | 12.5 | – | –
21 | O=C(CN1C(=O)C2C3C=CC(C3)C2C1=O)NCCC1=CCCCC1 (stereo not given) | – | 6510 nM [rising, single point] | –

A different layout for some results above:
Row	Compound	cell number change [%]	AC50 [1]	AC50 [2]
9	CCOc1ccc(OCCC(=O)N2CCN(S(=O)(=O)c3ccc(F)cc3)CC2)cc1	–	–	731 nM [rising, single point]
10	COc1cccc(-n2nnc(S(=O)(=O)c3ccc(C)cc3)c2N)c1	7.79	–	–
11	O=C(CC(c1ccccc1)c1ccccc1)Nc1nn[nH]n1	-1.38	–	–
12	O=Cc1ccccc1OCc1ccc2c(c1)OCO2	14.4	–	–
13	C/C(=N/Nc1ccc(C)cc1)C1(C)N(O)C(C)(C)C(c2ccco2)=[N+]1[O-] (stereo not given)	–	–	146 nM [rising, full curve, poor fit]
14	Cc1ccccc1C(=O)Nc1c2c(nn1C(C)(C)C)CS(=O)(=O)C2	7.12	–	2060 nM [rising, partial curve]
15	Cc1nonc1OC(C)CNc1ccc([N+](=O)[O-])cc1 (stereo not given)	-11.1	1300 nM [rising, partial curve]	–
16	COc1cc2c(cc1OC)CN(C(=O)C1CCCN(C(=O)c3ccc(Cl)cc3)C1)CC2 (stereo not given)	-27.1	–	3260 nM [falling, partial curve]
17	O=C(Nc1ccc2c(c1)OCO2)NC1CCN(Cc2ccccc2)CC1	–	517 nM [rising, full curve]	651 nM [rising, full curve]
18	COc1ccc(NC(=O)COC(=O)c2ccc3ccccc3n2)cc1	-17.3	–	29100 nM [rising, single point]

Going on with the list.

Row | Compound | cell number change [%] | AC50 [1] | AC50 [2]
22 | Clc1cc(Cl)c(Cl)cc1Cl | 21.4 | – | 73.1 nM [rising, full curve, poor fit]
23 | Cc1cccc(C(=O)Nc2ccc(C(=O)N/N=C/c3cccc(C)n3)cc2)c1 | -2.61 | – | –
24 | COc1cc(C2C(C(=O)c3ccc(C)o3)=C(O)C(=O)N2c2cc(C)on2)cc(Br)c1O (stereo not given) | – | – | 2910 nM [falling, partial curve, poor fit]
25 | Cc1ccc(S(=O)(=O)N2C(=O)C(C)SC2=Nc2ccccc2)cc1 (stereo not given) | 0.943 | – | 58 nM [falling, full curve, poor fit]
26 | N=Nc1c(O)n(CC(=O)Nc2ccccc2)c2ccccc12 | -12.6 | 4110 nM [falling, single point] | 1160 nM [falling, single point]
27 | COc1ccc(C(=O)/C=C/Nc2cc(C)on2)c(OC)c1 | 9.25 | – | 651 nM [rising, full curve]
28 | O=c1cc(O)c2sc(Nc3ccc(F)c(Cl)c3)nc2[nH]1 | 8.83 | 2910 nM [rising, single point] | –
29 | COc1cc(S(=O)(=O)NCCN2CCOCC2)ccc1-n1cnnn1 | -17.2 | – | 4.61 nM [falling, full curve, poor fit]
30 | c1ccc2c3n(nc2c1)CCCCO3 | 10.7 | 116 nM [falling, single point] | –
31 | CCc1ccc(-c2cc(C)no2)cc1S(=O)(=O)N1CCN(c2ccccc2F)CC1 | 27.1 | – | 9200 nM [rising, partial curve]
32 | O=c1c2ccccc2nc(-c2ccco2)n1Cc1ccccc1 | -21.8 | – | 23100 nM [rising, partial curve]
33 | CCOC(=O)c1[nH]c2cc3c(cc2c1NC(=O)CN1CCc2ccccc2C1)OCO3 | -20.4 | – | 2310 nM [falling, single point]
34 | CC12CCC(C(=O)Nc3nc4ccc(Br)cc4s3)(OC1=O)C2(C)C (stereo not given) | -49.5 | – | –
35 | O=C(Nc1ccccc1C(=O)NCc1ccc(Cl)cc1)c1ccco1 | -15.9 | – | 580 nM [rising, single point]
36 | CCN(C(=O)COc1cccnc1[N+](=O)[O-])C1CCS(=O)(=O)C1 (stereo not given) | -17.8 | – | 6.51 nM [falling, full curve, poor fit]
37 | CCn1c(C)cc(/C=C2/NC(=O)N(Cc3ccccc3F)C2=O)c1C | – | – | 651 nM [rising, full curve, poor fit]
38 | O=C(Nc1ccccn1)C1(c2cccs2)CCOCC1 | -7.85 | – | 14600 nM [rising, partial curve, poor fit]
39 | Cc1ccc(C)c(NC(=O)CN(C)C(=O)Cc2coc3cc(C)c(C)cc23)c1 | – | 82 nM [falling, full curve] | –
40 | O=C(NC(=S)N1CCc2ccccc21)c1ccccc1Cl | 9.46 | – | –
41 | CC(C(=O)Nc1cccc([N+](=O)[O-])c1)[n+]1ccccc1 (stereo not given) | -19.5 | – | 20600 nM [falling, single point]
42 | O=C(Nc1cccc(Cl)c1)c1ccc(F)c(S(=O)(=O)N2CCN(c3ccccn3)CC2)c1 | 12.3 | – | –
